In this assay the target is E. coli dihydrofolate reductase (DHFR) (Escherichia coli, UniProt P0ABQ4). The assay is described as follows: steady-state kinetics dose response. Format: biochemical.

The chains behind the UniProt entries cited, without tags or fusion partners. Where a name states a change or a piece, a line headed by the entry shows the natural chain unless it says otherwise.
UniProt P0ABQ4: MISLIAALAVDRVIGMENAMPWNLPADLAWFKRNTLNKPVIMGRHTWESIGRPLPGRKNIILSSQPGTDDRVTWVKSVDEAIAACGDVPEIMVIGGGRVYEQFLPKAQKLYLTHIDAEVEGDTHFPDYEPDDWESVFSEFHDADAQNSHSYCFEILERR

As to `COc1cc2ncnc(Nc3ccc(F)c(Cl)c3)c2cc1OCCCN1CCOCC1` [NSC715055, Gefitinib], the IC50 is about 64 µM.

Values taken from article PMC8243409 (Journal of chemical information and modeling, 2021).
